According to US20140024677A1, “METHODS FOR INDUCING MITOCHONDRIAL BIOGENESIS” (MUSC Foundation For Research Development, priority 2012, published 2014):
Where “and” joins values, the source holds several entries; their conditions need not be identical. Equal entries are not always repeated. Where two headings read alike, the source gives them in different places.

How the values were obtained:
[1] = system: PGC-1α in skeletal muscle; conditions: 24 h after injection of 100 μg/kg; cited from earlier work
[2] = system: RPTC; conditions: 30 nM, 24 h, relative to DMSO controls
[3] = system: PGC-1α, ATP6, ND1, ND6, NDUFB8 mRNA in kidney cortex
[4] = system: adult feline cardiomyocytes (AFC); format: cell-based; conditions: 24 hr, formoterol 10 and 30 nM
[5] = system: PGC-1α, ATP6, ND1, ND6, NDUFB8 mRNA in heart
[6] = 72 hr, repeated daily 100 μg/kg i.p.
[7] = 72 hr, repeated daily 100 μg/kg

Compound: COc1ccc(C[C@@H](C)NC[C@H](O)c2ccc(O)c(NC=O)c2)cc1 (racemic) [formoterol, rac-(R,R)—N-[2-hydroxy-5-[1-hydroxy-2-[1-(4-methoxyphenyl)propan-2-ylamino]ethyl]phenyl]formamide]
- PGC-1α in skeletal muscle [1]: increased
- Increase in mitochondrial (mtDNA) copy number [2]: 2.5 fold
- ATP6 mRNA induction, kidney ([3]; 24 hr after 100 μg/kg i.p.): 2.5 fold
- ND1 mRNA induction, kidney ([3]; 24 hr after 100 μg/kg i.p.): 3.5 fold
- ND6 mRNA induction, kidney ([3]; 24 hr after 100 μg/kg i.p.): 2.5 fold
- NDUFB8 mRNA induction, kidney ([3]; 24 hr after 100 μg/kg i.p.): 2 fold
- PGC-1α mRNA induction, kidney ([3]; 24 hr after 100 μg/kg i.p.): 2.5 fold
- ND1 mRNA induction, kidney [3, 6]: 2 fold
- NDUFB8 mRNA induction, kidney [3, 6]: 2 fold
- PGC-1α mRNA induction, kidney [3, 6]: 1.5 fold and 1.75 fold
- Change in FCCP-uncoupled OCR [4]: increased
- ATP6 mRNA induction, heart ([5]; 24 hr, 100 μg/kg): 1.5 fold
- ND1 mRNA induction, heart ([5]; 24 hr, 100 μg/kg): 2 fold
- ND6 mRNA induction, heart ([5]; 24 hr, 100 μg/kg): 2 fold
- NDUFB8 mRNA induction, heart ([5]; 24 hr, 100 μg/kg): 2 fold
- PGC-1α mRNA induction, heart ([5]; 24 hr, 100 μg/kg): 3 fold
- ND1 mRNA induction, heart [5, 7]: 4 fold
- NDUFB8 mRNA induction, heart [5, 7]: 2 fold
- PGC-1α mRNA induction, heart [5, 7]: 2 fold
